The source of these data is PubChem BioAssay AID493014 (National Center for Advancing Translational Sciences (NCATS), 2011).

The nature of the assay: qHTS Assay to Find Inhibitors of Chronic Active B-Cell Receptor Signaling. The conditions noted are these: ABC-DLBCL IkBa-CBG/CBR reporter, luminescence ratio (green luciferase fused to IkBa over red control in TMD8 lymphoma cells), 4 h. In outline:
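Compounds up to 46 uM were incubated four hours with TMD8 cells whose green CBG68 luciferase is fused to IkappaBalpha; red CBR luminescence normalised the signal, and concentration-effect curves were fitted to fusion, red and ratio data.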
For orientation: qHTS replaces the single test concentration by a dilution series.

Where [1] appears, read: measured here: CBR red luminescence, cell number.
The mark [2] stands for this setting: measured here: IkBa-CBG green luminescence.

The list shows a part of the results. These are further read-outs of the screen, such as a control signal, another cell line or another target. No call is given for them. Compounds called inactive in the main read-out are mostly missing here. Potencies come from curve fits of mixed quality, noted in brackets.

`CCn1c(O)c(/C=N/NC(=O)c2ccccc2)c(=O)[nH]c1=S`: under setting [1], the AC50 (usually the midpoint of the concentration-response curve, whichever way the signal moves) was 0.708 µM [falling, full curve]. Same read-out and setting: as for `C=CCSc1nc2c(c(-c3ccsc3)c1C#N)CN(C)CC2`, the figure is 7.08 µM [falling, partial curve]; as for `CS(=O)(=O)Nc1ccc(Cc2noc(-c3ccc4[nH]cc(CCN)c4c3)n2)cc1`, 5.62 µM [rising, single point]. In the case of `COc1cc(/C=C/c2nc3ccccc3c(=O)n2-c2ccc(O)cc2)ccc1O`, the AC50 under setting [1] is 11.2 µM [falling, partial curve, poor fit]. Turning to `CCCCn1c(O)c(C(CC)=NCc2cc(OC)cc(OC)c2)c(=O)[nH]c1=O`, the AC50 under setting [1] is 2.24 µM [rising, full curve, poor fit].

Consider `O=c1[nH]sc2cc(F)ccc12`, for which the AC50 was 8.91 µM [falling, partial curve, poor fit] under setting [1] and 6.31 µM [rising, full curve] under setting [2]. For the compound `COc1cc(/C=C/C(=O)c2ccc3c(c2)OCO3)cc(Cl)c1O`, the AC50 under setting [1] is 12.6 µM [falling, partial curve, poor fit]. In the case of `CN(C)C(=O)Oc1ccc2oc(=O)cc(-c3cc4ccccc4o3)c2c1`, the AC50 under setting [1] is 0.316 µM [rising, full curve, poor fit]. `COCCCn1c(N)c(C(=O)NCCC(C)C)c2nc3ccccc3nc21`: the half-maximal activity concentration (AC50) under setting [1] was 12.6 µM [falling, partial curve, poor fit]. As to `Cn1c(O)c(/C=N/N2CCOCC2)c(=O)n(C)c1=S`, the AC50 under setting [1] is 8.91 µM [falling, partial curve].

In the case of `Cc1cc(-c2ccccc2)nc(N/N=C/c2ccccc2F)n1`, the AC50 under setting [1] is 10 µM [falling, single point]. With `CCCCCCC(=O)N/N=C/c1c(O)n(CCc2ccccc2)c(=O)[nH]c1=O`, the AC50 under setting [1] is 25.1 µM [falling, single point]. As to `CCN1CCN(Cc2cc(OC)c(OC)cc2[N+](=O)[O-])CC1`, under setting [1], the AC50 was 35.5 µM [falling, single point].

`O=C1NC(=O)N(c2ccc3c(c2)OCO3)C(=O)/C1=C\c1ccc(N2CCCCC2)o1`: the AC50 under setting [1] is 20.6 µM [falling, single point]. Turning to `CC(C)[C@H]1C(=O)N2CCC[C@H]2[C@]2(O)O[C@](NC(=O)[C@@H]3C=C4c5cccc6[nH]cc(c56)C[C@H]4N(C)C3)(C(C)C)C(=O)N12`, under setting [1], the AC50 was 20.6 µM [rising, partial curve, poor fit]. Regarding `CNc1ccc2nc3ccccc3[n+](C)c2c1`, the AC50 under setting [1] is 0.501 µM [falling, full curve, poor fit]. The same measure, in the same setting: as for `O=c1[nH]c(=O)n(CCc2ccc(F)cc2)c(O)c1C=NCCCn1ccnc1`, the figure is 6.51 µM [falling, single point]; as for `NC(=Nc1ccccc1)Nc1ccccc1`, 2 µM [rising, partial curve, poor fit]; as for `C1CCC(c2nn3c(-c4n[nH]c5c4CCC5)nnc3s2)CC1`, 22.4 µM [falling, partial curve, poor fit]. Turning to `COc1cc(/C=N/NC(=O)c2ccccc2)ccc1O`, the half-maximal activity concentration (AC50) under setting [1] was 11.2 µM [falling, partial curve]. Regarding `CC(=O)OC(C)(C)/C=C/C(=O)[C@](C)(O)C1[C@H](O)C[C@@]2(C)C3CC=C4C(C[C@H](O)C(=O)C4(C)C)[C@]3(C)C(=O)C[C@]12C` (stereo not given in full), the AC50 under setting [1] was 23.1 µM [falling, single point].

`O=C1NC(=O)C(=Cc2ccc(-c3ccc(S(=O)(=O)N4CCOCC4)cc3)o2)C(=O)N1`: the AC50 under setting [1] is 6.31 µM [rising, single point]. For the compound `COC(=O)C1=C(c2ccc(OC(F)(F)F)cc2)C[C@@H]2CC[C@H]1N2C(=O)N1CCOCC1`, under setting [1], the half-maximal activity concentration (AC50) is 29.1 µM [rising, single point]. Regarding `CCNC(=O)NC(=O)C(C)OC(=O)c1c(C)nn(Cc2ccccc2Cl)c1Cl` (stereo not given), the AC50 under setting [1] is 29.1 µM [falling, single point]. With `Cc1cc(C)c(N)cc1C`, the AC50 under setting [1] is 10.3 µM [falling, partial curve, poor fit]. On the same count and under the same terms, as for `CC12CN3CCN(C1)CC(C)(C3)C2=NO`, the figure is 3.66 µM [rising, single point]. Regarding `COC(=O)C1=C(c2ccc3ccccc3c2)C[C@@H]2CC[C@H]1N2C(=O)NC1CCCCC1`, the AC50 under setting [1] is 3.26 µM [falling, single point]. For the compound `Oc1ccc(/C=N/NP(=S)(c2ccccc2)c2ccccc2)cc1`, the concentration at half-maximal activity (AC50) under setting [1] was 20.6 µM [falling, partial curve]. For `O=C1NC(=O)N(Cc2ccccc2)C(=O)/C1=C/c1cnc(-c2ccccc2)nc1`, under setting [1], the AC50 was 11.2 µM [falling, single point].

Regarding `O=C(CCN1CCOCC1)Nc1ccc(Br)cc1C(=O)c1ccccc1`, the AC50 under setting [1] was 28.2 µM [rising, single point]. Regarding `COc1ccc(OC)c(NC(=O)c2ccc(-c3csc(C)n3)cc2)c1`, the AC50 under setting [1] was 10 µM [falling, partial curve]. On to `CCOC(=O)c1ccc2[nH]c(-c3ccc(S(=O)(=O)F)cc3)cc(=O)c2c1`, for which the half-maximal activity concentration (AC50) under setting [1] is 35.5 µM [falling, single point].

For `O=C(Cn1c(=O)oc2ccccc21)NC(=O)NCc1ccco1`, the AC50 under setting [1] is 16.4 µM [rising, single point]. As for `CCOP(=O)(OCC)C1(C(=O)O)CCCC1`, the half-maximal activity concentration (AC50) under setting [1] was 0.794 µM [falling, full curve, poor fit].

As for `CCN(CC)CCN=Cc1c(O)n(Cc2ccccc2)c(=O)[nH]c1=O`, the AC50 under setting [1] is 35.5 µM [rising, partial curve, poor fit]. In the case of `CN(C(=O)Oc1ccc(C(C)(C)C)cc1)c1ccccc1`, under setting [1], the AC50 is 14.1 µM [rising, partial curve, poor fit]. Turning to `O=C(c1cc(-c2ccccc2)on1)N1CCC2(CC1)OCCO2`, the AC50 under setting [1] was 3.16 µM [rising, full curve, poor fit]. The same measure, in the same setting: the value for `CCn1c(Sc2ccc([N+](=O)[O-])cn2)nnc1-c1ccco1` was 12.6 µM [falling, partial curve, poor fit].

Regarding `O=C(CNC1CCCCC1)N1CCC2(CC1)OCCO2`, the AC50 under setting [1] is 29.1 µM [falling, single point]. Take `N[C@@H](Cc1c[nH]c2ccccc12)c1nnc(SCc2c(F)cccc2Cl)o1`: under setting [1], the AC50 is 2 µM [rising, partial curve, poor fit]. Take `Cc1ccc(C(=O)Nc2ccc(C(=O)N/N=C/c3ccc(C)o3)cc2)cc1`: the concentration at half-maximal activity (AC50) under setting [1] is 22.4 µM [falling, single point].

In the case of `Cc1ccccc1-n1c(C)nc2sccc2c1=O`, the AC50 under setting [1] was 11.2 µM [rising, partial curve].

Turning to `CC(C)CSC1=NSC2=NC(=O)/C(=C\c3ccccc3)C(=N)N12`, under setting [1], the AC50 was 35.5 µM [falling, single point]. In the case of `O=c1c2ccccc2[se]n1-c1ccccc1`, the AC50 reads like this: under setting [1], 22.4 µM [falling, single point]; under setting [2], 5.8 µM [falling, full curve]. On to `C[n+]1c(-c2ccccc2)c2cc(N)ccc2c2ccc(N)cc21`, for which, under setting [1], the AC50 is 31.6 µM [rising, single point]. In the case of `C#CC1(O)C=CC2C3CCC4=CC(=O)CCC4C3CCC21CC` (stereo not given), the AC50 is, setting by setting: under setting [1], 22.4 µM [rising, partial curve, poor fit]; under setting [2], 11.2 µM [falling, partial curve, poor fit]. With `Cn1nnnc1SCc1ccc(C(=O)Nc2ccccc2F)cc1`, the AC50 under setting [1] is 22.4 µM [falling, partial curve, poor fit]. `CC(C)(C)C(O)C(Oc1ccc(Cl)cc1)n1cncn1` (stereo not given): the AC50 under setting [1] is 0.1 µM [falling, full curve]. Turning to `NC(=O)[C@H]1CC2(CC(c3cccc(NC(=O)COc4ccc(Cl)cc4)c3)=NO2)CN1C(=O)c1ccc(Cl)cc1` (stereo not given in full), under setting [1], the AC50 was 11.2 µM [falling, partial curve]. For `COc1cc2c(cc1OC)C(C(=O)N1CCC3(CC1)OCCO3)C(c1ccccc1F)N(C)C2=O` (stereo not given), the AC50 under setting [1] is 32.6 µM [falling, partial curve, poor fit]. Still for that read-out and setting: as for `COc1ccc(C(=O)/C=C2/C(=O)Nc3ccccc32)c(OC)c1`, the figure is 12.6 µM [falling, partial curve, poor fit]; as for `O=C(CN1CCN(C(=O)COc2cccc(F)c2)CC1)Nc1ccc(Cl)c(C(F)(F)F)c1`, 10.3 µM [falling, partial curve, poor fit]; as for `COc1ccc(/C=C\C(=O)c2c(O)ccc3c(C)cc(=O)oc23)cc1OC`, 14.1 µM [rising, partial curve, poor fit]. As to `O=C1c2ccccc2-c2onc3c(N4CCN(CCO)CC4)cc(N4CCN(C(=O)c5ccco5)CC4)c1c23`, under setting [1], the AC50 is 11.2 µM [falling, partial curve, poor fit]. Same read-out and setting: as for `CCOc1cc(CNCCc2c[nH]c3ccccc23)cc(Cl)c1OC`, the figure is 10 µM [falling, single point]; as for `CCOC(=O)C1(c2ccccc2)CCN(CCC(=O)Nc2cccc(Br)c2)CC1`, 29.1 µM [falling, single point]; as for `COc1ccc2c(c1)c(/C=C/c1cc[n+](C)cc1)cn2C`, 2.82 µM [falling, partial curve, poor fit].

On to `O=C(Oc1c(Cl)cc(Cl)c2ccccc12)N1CCCCC1`, for which the AC50 under setting [1] is 23.1 µM [rising, single point]. Take `Clc1ccc(OCC#CCN2CCOCC2)cc1`: the AC50 under setting [1] is 7.94 µM [rising, partial curve, poor fit].

Regarding `CCOP(=O)(OCC)/C(C#N)=C/c1ccc(Br)cc1`, the AC50 under setting [1] is 7.94 µM [falling, partial curve, poor fit]. The same measure, in the same setting: as for `c1ccc2c(CN3CCCCC3)c[nH]c2c1`, the figure is 1.12 µM [rising, partial curve, poor fit]. Still for that read-out and setting: the value for `O=C(c1ccc2c(c1)N(Cc1ccc(F)cc1)CCS2)N1CCC2(CC1)OCCO2` was 15.8 µM [falling, partial curve, poor fit].
